Measured values published in publication PMC7819943, “Rice protein-binding microarrays: a tool to detect cis-acting elements near promoter regions in rice”.
The other results are listed elsewhere or left out.

Target: T1, OsSMF1 (Oryza sativa, UniProt Q6ZLB0 1-436)
T1 sequence: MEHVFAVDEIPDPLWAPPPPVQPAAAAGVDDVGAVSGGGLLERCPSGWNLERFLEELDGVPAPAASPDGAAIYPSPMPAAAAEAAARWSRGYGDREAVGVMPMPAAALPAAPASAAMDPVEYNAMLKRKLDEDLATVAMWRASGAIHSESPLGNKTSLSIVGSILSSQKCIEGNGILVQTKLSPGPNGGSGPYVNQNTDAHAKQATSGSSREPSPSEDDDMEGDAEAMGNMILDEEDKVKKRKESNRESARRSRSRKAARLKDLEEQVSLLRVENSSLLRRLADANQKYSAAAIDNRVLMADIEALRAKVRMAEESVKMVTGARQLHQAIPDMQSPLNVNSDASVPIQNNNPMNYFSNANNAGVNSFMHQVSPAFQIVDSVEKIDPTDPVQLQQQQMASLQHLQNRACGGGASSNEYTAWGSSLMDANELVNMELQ
Assay: protein-binding microarray (RPBM); PBS, 2% BSA, 51.3 ng/ul salmon testes DNA, 50 uM zinc acetate, 200 nM TF, 25 C, 1 h; high values mean tight binding
Details: protein: recombinant; tags: N-terminal polyhistidine and DsRed monomer fusion (pET32a); chain copies: 2; label: CyDye5-dUTP incorporated in the synthesized complementary strand; 3' TTTTT single-stranded linker to array surface; dsDNA, one strand shown
How it was run: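 Polyhistidine-tagged DsRed fusions of transcription factors, joined at the N-terminus, were expressed in E. coli BL21-CodonPlus and isolated on Ni–NTA. They were incubated at 200 nM for 1 h at 25 °C on a custom Agilent array, double-stranded and BSA-blocked, in PBS with 2% BSA, salmon testes DNA and 50 µM zinc acetate. The binding signal is per-feature fluorescence intensity (arbitrary units) read on an Axon 4000B scanner after washing.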

Going from “TGCACGGAATAATCCAGAACGTGTCAGGCCAAAGGGCCCCCGGAGTCACCTAGTGCAG” to “ATCGATCCAAGCCAAGGTGACTCACCACTCCACTCCACTCCGGAGTCACCTAGTGCAG”, the binding signal rises from 3160 fluorescence intensity (a.u.) to 12600 fluorescence intensity (a.u.).

First: TAGTGCAGATGCAACGGAAGAAGCTCCACCTCAATGGAAGCGGAGTCACCTAGTGCAG
Second: CCCAAACGGAACCGACCTGCCATGCCCATGCTGGCTGCGTCGGAGTCACCTAGTGCAG
The binding signal of the first is higher: 6560 fluorescence intensity (a.u.) for the first, 3380 fluorescence intensity (a.u.) for the second.

Going from “GCCACACCTCCCATTCCTTAGCCAAACACTCGCACTACTCCGGAGTCACCTAGTGCAG” to “AGAAGTATTTCTGCGTCATTGTTGGAAATTATATTTCTAGCGGAGTCACCTAGTGCAG”, the binding signal rises from 3200 fluorescence intensity (a.u.) to 3650 fluorescence intensity (a.u.).

Going from “ATTTTACTCTTAGCAATCAATTTAGCATATTTATCTATTCCGGAGTCACCTAGTGCAG” to “TCAATAGAAAATAAACTGATTCATGTTAAAACCTTCACACCGGAGTCACCTAGTGCAG”, the binding signal rises from 3360 fluorescence intensity (a.u.) to 46600 fluorescence intensity (a.u.).

Going from “TAGTATATAAAGCCTCGCACGGGACCAATCTCCACTTCCGCGGAGTCACCTAGTGCAG” to “CCAGAACGCGCCACGTAGCGCATCGAAGAGATCCAGCATCCGGAGTCACCTAGTGCAG”, the binding signal rises from 3200 fluorescence intensity (a.u.) to 4780 fluorescence intensity (a.u.).

Compared with “AAGGCGAGGCGCCCTGACGCCTTTTCCCGCGATCTGATCTCGGAGTCACCTAGTGCAG”, “ATTCACTGATAATAGAGACCCACACGTTAGTATTGGAGTACGGAGTCACCTAGTGCAG” is lower in binding signal: 4930 fluorescence intensity (a.u.) for the first, 3140 fluorescence intensity (a.u.) for the second.

Going from “TCAAGATCCAACAGCTTGTCTCGTGCTCGTCACAGCTTCTCGGAGTCACCTAGTGCAG” to “CAGGGCCATGTTCGCTGATACATTGTGTTGGATTGCACTGCGGAGTCACCTAGTGCAG”, the binding signal rises from 3230 fluorescence intensity (a.u.) to 3470 fluorescence intensity (a.u.).

First: CCGCGACGCCCCAGCAACACATCGCTACCATGCCATCGCCCGGAGTCACCTAGTGCAG
Second: GCCACACCCACACTGACACACATATACAAGCCAGAGAGATCGGAGTCACCTAGTGCAG
The binding signal of the first is lower: 3270 fluorescence intensity (a.u.) for the first, 3280 fluorescence intensity (a.u.) for the second.

First: CCCGTCCAGCATTTTGTGTCTTGTCATCCTCGCCACCTCACGGAGTCACCTAGTGCAG
Second: TTGTACTGTAACAGCTTGGTTTGATGTGCATGGCTTACTGCGGAGTCACCTAGTGCAG
The binding signal of the first is higher: 7020 fluorescence intensity (a.u.) for the first, 3300 fluorescence intensity (a.u.) for the second.

Going from “AAGATGGGCTTTGGGCCTTCGATAACCTATGCCATGTCAGCGGAGTCACCTAGTGCAG” to “GCCATGAACGTCTCATTGTGAATGTGTCATCGAGGAGAAGCGGAGTCACCTAGTGCAG”, the binding signal falls from 8510 fluorescence intensity (a.u.) to 5310 fluorescence intensity (a.u.).

Compared with “CAAGAAATTTCCACGGGGAAAACGACGCCTAATCACCGTGCGGAGTCACCTAGTGCAG”, “GGCGGCCAGAAGAGCGCGCCGCCGCGGAGCACGACGGGGACGGAGTCACCTAGTGCAG” is higher in binding signal: 3240 fluorescence intensity (a.u.) for the first, 3270 fluorescence intensity (a.u.) for the second.

Compared with “TACACCATGTCCTAAAATTCCCGTCTGACTTTGGTTGGGACGGAGTCACCTAGTGCAG”, “CGGCGCTCGTCGCCTCGCCGCGGCGTCGTCACTGTTCCGGCGGAGTCACCTAGTGCAG” is lower in binding signal: 20700 fluorescence intensity (a.u.) for the first, 4040 fluorescence intensity (a.u.) for the second.

Going from “AAAGGAAAGGACGAAACCACCTCACCTCATCTCATGGCGTCGGAGTCACCTAGTGCAG” to “ACGAATTTATTAAGCCTAATTAATCCGTTATTAGCAAATGCGGAGTCACCTAGTGCAG”, the binding signal rises from 3230 fluorescence intensity (a.u.) to 6210 fluorescence intensity (a.u.).

Going from “CCAACGAATCCAACCAAATTCGCTGTTCTTGCCTTCTTCTCGGAGTCACCTAGTGCAG” to “GAGGTGTACCACTAAGTGTGTACGTGTATAGTGGGGCGTGCGGAGTCACCTAGTGCAG”, the binding signal rises from 3340 fluorescence intensity (a.u.) to 7420 fluorescence intensity (a.u.).

Going from “GGCCGCGCTCGAGACCAGTCCACGGTGTCGTCCACCGCCCCGGAGTCACCTAGTGCAG” to “AAAGCCTCGCCGCCATCTCTCTCCACCACCCAAAATTTCTCGGAGTCACCTAGTGCAG”, the binding signal rises from 4480 fluorescence intensity (a.u.) to 35600 fluorescence intensity (a.u.).

First: CATTGGGGCGTGAAAGCGTCGTCAGAAATTCATCGGGGCTCGGAGTCACCTAGTGCAG
Second: TCTACCTCCGCCGCACGTGCCGCATCTTCCGCCGCCTCTGCGGAGTCACCTAGTGCAG
The binding signal of the first is lower: 3140 fluorescence intensity (a.u.) for the first, 3330 fluorescence intensity (a.u.) for the second.

Going from “TTTGTGTGTGTGGTTATGGTTCTTCGCCTATTCATCAACCCGGAGTCACCTAGTGCAG” to “CATTCATACTGATGCTAATGAATCTCGACATATGTATCTACGGAGTCACCTAGTGCAG”, the binding signal rises from 3320 fluorescence intensity (a.u.) to 22500 fluorescence intensity (a.u.).

Compared with “GCCGATGCATGCTCACACGATACATACTTTTCATTTCACCCGGAGTCACCTAGTGCAG”, “TAAGTGGCAGGTTGAATGATGTCGTCCCCATCCACCACCACGGAGTCACCTAGTGCAG” is lower in binding signal: 21100 fluorescence intensity (a.u.) for the first, 3260 fluorescence intensity (a.u.) for the second.

Going from “GTCGGCTTGCGTGGTAGCGTGACCTGGCAAACAGAGAGCACGGAGTCACCTAGTGCAG” to “ATGGAAAACCGTAGAGTACGAAGAGAACAGATGAATGCGACGGAGTCACCTAGTGCAG”, the binding signal rises from 6280 fluorescence intensity (a.u.) to 26100 fluorescence intensity (a.u.).

Compared with “CGTGCTTATTCAAATCTACGGTGAGAGCTAACACTACGTGCGGAGTCACCTAGTGCAG”, “ACATCGTCGTCGTCAAGCTGCAGGTTTCTGAACAAGAGATCGGAGTCACCTAGTGCAG” is lower in binding signal: 23400 fluorescence intensity (a.u.) for the first, 3260 fluorescence intensity (a.u.) for the second.

Going from “CGAGCCGACGGATGTTGGCGTGGTGGTGGTGACGAGGATGCGGAGTCACCTAGTGCAG” to “TTTCTTGGTGCGTGGTTACTTTCTTAGGGATGACAGGTGGCGGAGTCACCTAGTGCAG”, the binding signal rises from 4900 fluorescence intensity (a.u.) to 5290 fluorescence intensity (a.u.).
